Measurements from patent US11771717B2, “Applications of pair-production for improved radiotherapy” (Henry Ford Health System, priority 2017, dated 2023).
Entries after “also recorded” stand apart in the source; their conditions may differ.

Experiment: Emission spectra of irradiated solution by scintillation detector (evidence of pair production)
Details: 25 g dissolved in 50 ml of water

Substance: sodium phosphotungstate hydrate
- emission spectra with vs without dissolved metal (irradiated with 6 MV photons): nearly identical with or without dissolved metal
- emission of photons at 511 keV (irradiated with 18 MV photons, hydrate): increased emission of photons around 511 keV and higher; also recorded: significant increase in photons emitted at 511 keV
